Measured values as given in paper PMC8389370.
Results are given in words; binding and its absence hold for the method and conditions named. In cells and extracts the contact can be indirect. These calls come from enrichment with a bait or labelling near it, and not all partners need be listed.

Protein sequences, listed by entry. Tags and fused reporters are not part of them.
UniProt F8RG07: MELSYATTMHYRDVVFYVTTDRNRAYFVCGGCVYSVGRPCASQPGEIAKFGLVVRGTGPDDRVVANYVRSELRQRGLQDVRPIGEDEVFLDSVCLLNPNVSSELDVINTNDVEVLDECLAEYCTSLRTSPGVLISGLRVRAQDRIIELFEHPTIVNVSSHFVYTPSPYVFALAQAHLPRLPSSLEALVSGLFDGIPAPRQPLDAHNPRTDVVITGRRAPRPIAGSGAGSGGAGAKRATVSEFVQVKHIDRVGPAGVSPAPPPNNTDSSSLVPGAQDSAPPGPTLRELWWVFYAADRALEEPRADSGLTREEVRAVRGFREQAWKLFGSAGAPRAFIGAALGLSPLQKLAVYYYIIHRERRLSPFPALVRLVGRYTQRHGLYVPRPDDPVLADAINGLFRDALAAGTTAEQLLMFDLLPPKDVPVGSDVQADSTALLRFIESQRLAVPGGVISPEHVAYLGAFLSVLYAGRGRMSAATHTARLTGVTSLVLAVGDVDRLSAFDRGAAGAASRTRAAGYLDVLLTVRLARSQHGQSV

Biological target: C-terminally GFP-tagged pUL21 (pUL21-GFP), wild type (HSV-1 strain KOS) (UniProt F8RG07)
Assay: affinity purification with mass spectrometry; SILAC-labelled HEK293T cells transfected with pUL21-GFP or GFP alone, lysed 24 h post-transfection (10 mM Tris pH 7.5, 150 mM NaCl, 0.5 mM EDTA, 0.5% NP-40), GFP-TRAP beads, quantitative mass spectrometry, three biological replicates

B1: ceramide-transport protein CERT, endogenous (protein, UniProt Q9Y5P4 1-624)
chain: MSDNQSWNSSGSEEDPETESGPPVERCGVLSKWTNYIHGWQDRWVVLKNNALSYYKSEDETEYGCRGSICLSKAVITPHDFDECRFDISVNDSVWYLRAQDPDHRQQWIDAIEQHKTESGYGSESSLRRHGSMVSLVSGASGYSATSTSSFKKGHSLREKLAEMETFRDILCRQVDTLQKYFDACADAVSKDELQRDKVVEDDEDDFPTTRSDGDFLHSTNGNKEKLFPHVTPKGINGIDFKGEAITFKATTAGILATLSHCIELMVKREDSWQKRLDKETEKKRRTEEAYKNAMTELKKKSHFGGPDYEEGPNSLINEEEFFDAVEAALDRQDKIEEQSQSEKVRLHWPTSLPSGDAFSSVGTHRFVQKPYSRSSSMSSIDLVSASDDVHRFSSQVEEMVQNHMTYSLQDVGGDANWQLVVEEGEMKVYRREVEENGIVLDPLKATHAVKGVTGHEVCNYFWNVDVRNDWETTIENFHVVETLADNAIIIYQTHKRVWPASQRDVLYLSVIRKIPALTENDPETWIVCNFSVDHDSAPLNNRCVRAKINVAMICQTLVSPPEGNQEISRDNILCKITYVANVNPGGWAPASVLRAVAKREYPKFLKRFTSYVQEKTAGKPILF
  binding: binds
